13 molecules from CN114920842A can be followed below.

Numbering of substitutions follows the chain as printed. Results are given in words; binding and its absence hold for the method and conditions named. Some binding calls cover weakened binding; strength is not graded here.

The chains are these.
T1: 重组人PLVAP/PV-1蛋白 (human) (UniProt Q9BX97)
T1 sequence (looked up): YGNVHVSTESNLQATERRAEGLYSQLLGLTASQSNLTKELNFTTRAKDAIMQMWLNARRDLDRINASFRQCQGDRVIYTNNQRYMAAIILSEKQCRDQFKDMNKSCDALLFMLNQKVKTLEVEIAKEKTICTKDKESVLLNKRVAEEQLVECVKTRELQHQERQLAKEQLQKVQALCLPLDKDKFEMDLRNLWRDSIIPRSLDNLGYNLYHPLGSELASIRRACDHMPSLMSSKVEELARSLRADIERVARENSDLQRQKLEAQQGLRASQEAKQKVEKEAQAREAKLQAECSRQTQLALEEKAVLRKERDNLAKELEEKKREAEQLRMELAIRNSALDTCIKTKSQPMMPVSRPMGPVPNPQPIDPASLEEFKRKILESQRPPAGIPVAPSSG

B1: HLPV-P02 (antibody, IgG1, V domains shown, not shown: a dimerising Fc or GST)
VH: QVQLVQSGAEVKKPGASVKVSCKASGYVFTDYYMYWVRQAPGQGLEWIGEINPTTGDVNFNEMFKSRVTMTVDTSTSTAYMELSSLRSEDTAVYYCTSIFYWGQGTLVTVSS
VL: DIVMTQSPSSLSASVGDRVTITCKASQDIKYQLSWYQQKPGKAPKTLIYYSTDLADGVPSRFSGSGSGQEFTLTISSLQPEDFATYYCVQHDDRPFTFGQGTKLEIK
B2: HLPV-P10 (antibody, IgG1, V domains shown, not shown: a dimerising Fc or GST)
VH: B1 VH with V28T, T55Q
VL: B1 VL with S34T, S51A, D92S
B3: HLPV-P11 (antibody, IgG1, V domains shown, not shown: a dimerising Fc or GST)
VH: B1 VH with V28T, T55Q, S98T
VL: B1 VL with S51A, T97S
B4: HLPV-P12 (antibody, IgG1, V domains shown, not shown: a dimerising Fc or GST)
VH: B1 VH with V28T, T54S, T55Q
VL: B1 VL with S51A, L54R
B5: HLPV-P13 (antibody, IgG1, V domains shown, not shown: a dimerising Fc or GST)
VH: B1 VH with T55S
VL: B1 VL with S51A, T52G
B6: HLPV-P06 (antibody, IgG1, V domains shown, not shown: a dimerising Fc or GST)
VH: B1 VH with V28T, D31A, T55S
VL: B1 VL with S51A, D53F
B7: HLPV-P03 (antibody, IgG1, V domains shown, not shown: a dimerising Fc or GST)
VH: B1 VH with V28T, T30E, I51V, T55Q
VL: B1 VL with S51A, D53F
B8: HLPV-P04 (antibody, IgG1, V domains shown, not shown: a dimerising Fc or GST)
VH: B1 VH with V28T, T30R
VL: B1 VL with S51A, D53S
B9: HLPV-P14 (antibody, IgG1, V domains shown, not shown: a dimerising Fc or GST)
VH: B1 VH with V28T, D31N, T55S
VL: B1 VL with S51A, T52G
B10: HLPV-P08 (antibody, IgG1, V domains shown, not shown: a dimerising Fc or GST)
VH: B1 VH with V28T, T55Q, S98T
VL: B1 VL with S34T, S51A, Q90S
B11: HLPV-P09 (antibody, IgG1, V domains shown, not shown: a dimerising Fc or GST)
VH: B1 VH with V28T, T55Q, S98T
VL: B1 VL with K30G, S51A, D92Y
B12: HLPV-P07 (antibody, IgG1, V domains shown, not shown: a dimerising Fc or GST)
VH: B1 VH with V28T, T30E, T55Q, N59R
VL: B1 VL with S51A, D53Y
B13: HLPV-P05 (antibody, IgG1, V domains shown, not shown: a dimerising Fc or GST)
VH: B1 VH with V28T, T55Q
VL: B1 VL with S34T, S51A, D93N

The assay addresses T1, 重组人PLVAP/PV-1蛋白 (human). Briefly: SPR, Biacore T200, full IgG1 antibodies. A general note: SPR reads the build-up and loss of mass on a sensor chip optically.
Consider B1, for which the binding entry is given as “binds”.

Take B2: the binding result was “binds”. Next, B3: “binds”; B4: “binds”; B5: “binds”. Next, B6: “binds”; B7: “binds”. Then B8, with “binds”. In the case of B9, the binding result is reported as “binds”. Next, B10: “binds”; B11: “binds”.

In the case of B12, the binding entry is recorded as “binds”. Then B13, with “binds”.
